The list shows a part of the results. Many values rest on one well or one pass, so single values are uncertain.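 The apoptosis fraction was the count of cleaved-PARP antibody-stained nuclei relative to all DNA-stained nuclei, imaged in 1,536-well plates. Screening doses were set so most cells survived, and baseline and induced cleaved-PARP levels vary greatly across cell lines.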
Experiments:
Assay in all cases: cleaved PARP positive nuclei fraction relative to DMSO control; melanoma cells; higher = more apoptosis
Conditions in all cases: library dose: low library concentration; 72 h
[1] = test system: MZ2-MEL
[2] = test system: MeWo
[3] = test system: RPMI7951
[4] = test system: RVH-421
[5] = test system: SkMel28
[6] = test system: SkMel2
[7] = test system: SkMel30
[8] = test system: SkMel5
[9] = test system: UACC257
[10] = test system: UACC62

Row | Structure (SMILES) | cleaved PARP positive nuclei fraction [1] [%] | cleaved PARP positive nuclei fraction [2] [%] | cleaved PARP positive nuclei fraction [3] [%] | cleaved PARP positive nuclei fraction [4] [%] | cleaved PARP positive nuclei fraction [5] [%] | cleaved PARP positive nuclei fraction [6] [%] | cleaved PARP positive nuclei fraction [7] [%] | cleaved PARP positive nuclei fraction [8] [%] | cleaved PARP positive nuclei fraction [9] [%] | cleaved PARP positive nuclei fraction [10] [%]
1 | CN(c1ncccc1CNc1nc(Nc2ccc3c(c2)CC(=O)N3)ncc1C(F)(F)F)S(C)(=O)=O + COc1cc2ncnc(Nc3ccc(Oc4ccccc4)cc3)c2cc1OC [SrcI1] (first compound 0.08 µM, partner dose 2 µM) | 47 | 78.4 | 351 | 140 | 129 | 199 | 47.3 | 81.8 | 41.2 | 125
2 | COc1ccc(C2=N[C@@H](c3ccc(Cl)cc3)[C@@H](c3ccc(Cl)cc3)N2C(=O)N2CCNC(=O)C2)c(OC(C)C)c1 [Nutlin-3] + CN(NC(=O)CC(=O)NN(C)C(=S)c1ccccc1)C(=S)c1ccccc1 [STA4783] (first compound 0.1 µM, partner dose 0.006 µM) | 148 | 82 | 56.5 | 120 | 50.1 | 47.5 | 63.8 | 70.2 | 115 | 180
3 | CC(=O)O[C@@]12CO[C@@H]1C[C@H](O)[C@@]1(C)C(=O)[C@H](O)C3=C(C)[C@@H](OC(=O)[C@H](O)[C@@H](NC(=O)OC(C)(C)C)c4ccccc4)C[C@@](O)([C@@H](OC(=O)c4ccccc4)[C@H]21)C3(C)C [Docetaxel] + CN(NC(=O)CC(=O)NN(C)C(=S)c1ccccc1)C(=S)c1ccccc1 [STA4783] (first compound 0.0001 µM, partner dose 0.006 µM) | 895 | 1130 | 378 | 59.6 | 311 | 273 | 517 | 203 | 713 | 245
4 | CS(=O)(=O)c1ccc(C(=O)Nc2ccc(Cl)c(-c3ccccn3)c2)c(Cl)c1 [vismodegib] + Cn1cncc1[C@@](N)(c1ccc(Cl)cc1)c1ccc2c(c1)c(-c1cccc(Cl)c1)cc(=O)n2C [tipifarnib] (first compound 1 µM, partner dose 0.01 µM) | 128 | 102 | 77.2 | 81 | 56.9 | 92.1 | 196 | 43.2 | 90.8 | 74.6
5 | C[C@@H](N)c1ccc(C(=O)Nc2ccnc3[nH]ccc23)cc1 + C=CCn1c(=O)c2cnc(Nc3ccc(N4CCN(C)CC4)cc3)nc2n1-c1cccc(C(C)(C)O)n1 [MK1775] (first compound 0.4 µM, partner dose 0.02 µM) | 376 | 376 | 316 | 65.8 | 86.5 | 126 | 109 | 68.7 | 92.4 | 303
6 | NC1(c2ccc(-c3nc4ccn5c(=O)[nH]nc5c4cc3-c3ccccc3)cc2)CCC1 + Cn1cc(/C=C2\C(=O)Nc3cccnc32)c2ccccc21 [GW441756] (first compound 0.4 µM, partner dose 0.4 µM) | 68 | 139 | 70.7 | 101 | 204 | 20.4 | 29.3 | 93.5 | 594 | 169
7 | Cn1sc(=O)n(Cc2ccccc2)c1=O + COc1ccc2c(c1)CCC1C2CCC2(C)C(NCCCCCCN3C(=O)C=CC3=O)CCC12 [U73122] (first compound 0.4 µM, partner dose 0.4 µM) | 142 | 178 | 38.3 | 170 | 77.4 | 125 | 97.1 | 148 | 91.8 | 251
8 | COc1ccc(C2=N[C@@H](c3ccc(Cl)cc3)[C@@H](c3ccc(Cl)cc3)N2C(=O)N2CCNC(=O)C2)c(OC(C)C)c1 [Nutlin-3] + CCc1ccc(CCOc2ccc(CC3SC(=O)NC3=O)cc2)nc1 [pioglitazone] (first compound 0.1 µM, partner dose 2 µM) | 75.1 | 118 | 62.1 | 124 | 45.5 | 109 | 42.9 | 176 | 74.7 | 107
9 | C[C@@H](N)c1ccc(C(=O)Nc2ccnc3[nH]ccc23)cc1 + Cc1cc(N2CCOCC2)cc2[nH]c(-c3c(NC[C@@H](O)c4cccc(Cl)c4)cc[nH]c3=O)nc12 [BMS536924] (first compound 0.4 µM, partner dose 0.2 µM) | 183 | 123 | 124 | 166 | 74.4 | 192 | 62.6 | 184 | 280 | 139
10 | CS(=O)(=O)c1ccc(C(=O)Nc2ccc(Cl)c(-c3ccccn3)c2)c(Cl)c1 [vismodegib] + O=C(Nc1cccc(Cl)c1)Nc1ncc(CCNc2ncnc3ccsc23)s1 [SNS314] (first compound 1 µM, partner dose 0.0008 µM) | 107 | 106 | 79.3 | 885 | 214 | 68.4 | 71.2 | 66.5 | 62.3 | 88.7
11 | CCN(CC)CCNC(=O)c1c(C)[nH]c(/C=C2\C(=O)Nc3ccc(F)cc32)c1C [sunitinib] + COc1ccc2c(c1)CCC1C2CCC2(C)C(NCCCCCCN3C(=O)C=CC3=O)CCC12 [U73122] (first compound 0.4 µM, partner dose 0.4 µM) | 87 | 93.6 | 99.3 | 48.2 | 104 | 51.3 | 44 | 67.1 | 91.7 | 143
12 | CC(=O)O[C@@]12CO[C@@H]1C[C@H](O)[C@@]1(C)C(=O)[C@H](O)C3=C(C)[C@@H](OC(=O)[C@H](O)[C@@H](NC(=O)OC(C)(C)C)c4ccccc4)C[C@@](O)([C@@H](OC(=O)c4ccccc4)[C@H]21)C3(C)C [Docetaxel] + COc1ccc2c(c1)CCC1C2CCC2(C)C(NCCCCCCN3C(=O)C=CC3=O)CCC12 [U73122] (first compound 0.0001 µM, partner dose 0.4 µM) | 369 | 398 | 202 | 225 | 824 | 547 | 334 | 98.2 | 654 | 494
13 | NC(=O)c1ccc(N(C(N)=O)c2c(F)cccc2F)nc1-c1ccc(F)cc1F + COc1ccc2c(c1)CCC1C2CCC2(C)C(NCCCCCCN3C(=O)C=CC3=O)CCC12 [U73122] (first compound 0.4 µM, partner dose 0.4 µM) | 102 | 82.9 | 275 | 107 | 176 | 132 | 164 | 209 | 148 | 117
14 | Cn1sc(=O)n(Cc2ccccc2)c1=O + CC1(C)NC(=O)N(c2ccc([N+](=O)[O-])c(C(F)(F)F)c2)C1=O [nilutamide] (first compound 0.4 µM, partner dose 1 µM) | 41.4 | 102 | 53.5 | 58.1 | 93.9 | 127 | 64 | 125 | 40.8 | 50.5
15 | Cn1sc(=O)n(Cc2ccccc2)c1=O + C[C@@H]1CCN(C(=O)CC#N)C[C@@H]1N(C)c1ncnc2[nH]ccc12 [CP690550] (first compound 0.4 µM, partner dose 1 µM) | 30 | 110 | 49.7 | 38.4 | 66.7 | 164 | 64.5 | 37.2 | 82.1 | 72.4
16 | C[C@]1(O)C[C@@H](c2nc(-c3ccc4ccc(-c5ccccc5)nc4c3)c3c(N)nccn32)C1 + CC1(C)NC(=O)N(c2ccc([N+](=O)[O-])c(C(F)(F)F)c2)C1=O [nilutamide] (first compound 0.4 µM, partner dose 1 µM) | 123 | 146 | 65.7 | 249 | 59.5 | 347 | 45.1 | 133 | 43.2 | 66.2
17 | NC(=O)c1ccc(N(C(N)=O)c2c(F)cccc2F)nc1-c1ccc(F)cc1F + Cc1cc([N+](=O)[O-])ccc1NS(=O)(=O)c1cc(Cl)ccc1Cl [FH535] (first compound 0.4 µM, partner dose 1 µM) | 90.4 | 64.6 | 28.3 | 148 | 225 | 58.9 | 780 | 80.2 | 145 | 230
18 | CC(=O)O[C@@]12CO[C@@H]1C[C@H](O)[C@@]1(C)C(=O)[C@H](O)C3=C(C)[C@@H](OC(=O)[C@H](O)[C@@H](NC(=O)OC(C)(C)C)c4ccccc4)C[C@@](O)([C@@H](OC(=O)c4ccccc4)[C@H]21)C3(C)C [Docetaxel] + CO[C@@H]1[C@H](N(C)C(=O)c2ccccc2)C[C@H]2O[C@]1(C)n1c3ccccc3c3c4c(c5c6ccccc6n2c5c31)C(=O)NC4 [Midostaurin] (first compound 0.0001 µM, partner dose 0.08 µM) | 334 | 170 | 163 | 82.6 | 245 | 406 | 164 | 105 | 1150 | 157
19 | NC(=O)c1ccc(N(C(N)=O)c2c(F)cccc2F)nc1-c1ccc(F)cc1F + CO[C@@H]1[C@H](N(C)C(=O)c2ccccc2)C[C@H]2O[C@]1(C)n1c3ccccc3c3c4c(c5c6ccccc6n2c5c31)C(=O)NC4 [Midostaurin] (first compound 0.4 µM, partner dose 0.08 µM) | 146 | 145 | 47.1 | 1130 | 82.3 | 137 | 54.4 | 79.3 | 69.1 | 47.6
20 | NC(=O)c1ccc(N(C(N)=O)c2c(F)cccc2F)nc1-c1ccc(F)cc1F + COc1cc2c(Oc3ccc4[nH]c(C)cc4c3F)ncnc2cc1OCCCN1CCCC1 [cediranib] (first compound 0.4 µM, partner dose 0.4 µM) | 76 | 49.9 | 50.9 | 102 | 51.4 | 112 | 75.2 | 169 | 46.7 | 74.2
21 | CS(=O)(=O)c1ccc(C(=O)Nc2ccc(Cl)c(-c3ccccn3)c2)c(Cl)c1 [vismodegib] + CC1(C)NC(=O)N(c2ccc([N+](=O)[O-])c(C(F)(F)F)c2)C1=O [nilutamide] (first compound 1 µM, partner dose 1 µM) | 72.7 | 104 | 130 | 87.5 | 37.6 | 120 | 66.9 | 250 | 113 | 43.6

Quoted at random: 2 records from the list.
Row | Structure (SMILES) | cleaved PARP positive nuclei fraction [1] [%] | cleaved PARP positive nuclei fraction [2] [%] | cleaved PARP positive nuclei fraction [3] [%] | cleaved PARP positive nuclei fraction [4] [%] | cleaved PARP positive nuclei fraction [5] [%] | cleaved PARP positive nuclei fraction [6] [%] | cleaved PARP positive nuclei fraction [7] [%] | cleaved PARP positive nuclei fraction [8] [%] | cleaved PARP positive nuclei fraction [9] [%] | cleaved PARP positive nuclei fraction [10] [%]
13 | NC(=O)c1ccc(N(C(N)=O)c2c(F)cccc2F)nc1-c1ccc(F)cc1F + COc1ccc2c(c1)CCC1C2CCC2(C)C(NCCCCCCN3C(=O)C=CC3=O)CCC12 [U73122] (first compound 0.4 µM, partner dose 0.4 µM) | 102 | 82.9 | 275 | 107 | 176 | 132 | 164 | 209 | 148 | 117
5 | C[C@@H](N)c1ccc(C(=O)Nc2ccnc3[nH]ccc23)cc1 + C=CCn1c(=O)c2cnc(Nc3ccc(N4CCN(C)CC4)cc3)nc2n1-c1cccc(C(C)(C)O)n1 [MK1775] (first compound 0.4 µM, partner dose 0.02 µM) | 376 | 376 | 316 | 65.8 | 86.5 | 126 | 109 | 68.7 | 92.4 | 303
